Measurements reported in PubChem BioAssay AID743121 (NCATS, 2013)

Purpose: 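Genes whose silencing strengthens cell killing by camptothecin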 (primary screen)
System: MDA-MB-231 cells, a human breast cancer line
Reagents: single siRNA against human genes, 20 nM siRNA (0.8 pmol per well)
Time to read-out: 120 h (drug added 48 h after transfection, read 72 h later)
Treatment: camptothecin 20 nM (about EC30) for 72 h; vehicle 0.1% DMSO in parallel plates
Measurement: 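CellTiter-Glo ATP signal, scaled to control siRNA as percent viability; sensitisation given as log2 of untreated divided by camptothecin-treated viability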
Direction: log2 vehicle/camptothecin viability: higher = stronger sensitisation to camptothecin; viability with camptothecin and viability without drug: higher = more viable cells
Call rule: 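Active genes have an RSA gene-level p-value below 0.001, computed from the ratios of their separate siRNAs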
The whole screen tested about 26,000 reagents; this is a part drawn at random. Of all reagents, 167 (0.63%) are marked active. 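Calls are per gene from RSA p-values that are not deposited; an individual active-marked siRNA can sensitise only weakly.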 The numbers tell different reagents against one gene apart.

Target gene	siRNA no.	log2 vehicle/camptothecin viability	viability with camptothecin (% of control)	viability without drug (% of control)	call
STK25	1	-0.0641	70.2	67.1	inactive
STK25	2	-0.39	37.6	28.7	inactive
STK25	3	-0.189	58.6	51.4	inactive
STK25	4	-0.494	80.2	57	inactive
DCLRE1A	1	0.366	70.2	90.5	inactive
DCLRE1A	2	0.0977	96.1	103	inactive
DCLRE1A	3	-0.26	114	95.4	inactive
DCLRE1A	4	-0.0498	91.1	88	inactive
TAS2R9	1	-0.226	86.7	74.2	inactive
TAS2R9	2	-0.258	78.7	65.8	inactive
TAS2R9	3	-0.174	70	62	inactive
TAS2R9	4	-0.142	68.4	62	inactive
SLC38A2	1	-0.268	113	93.8	inactive
SLC38A2	2	-0.727	88.4	53.4	inactive
SLC38A2	3	0.15	49.5	54.9	inactive
SLC38A2	4	-0.319	110	88.6	inactive
VASP	1	0.108	36.7	39.6	inactive
VASP	2	-0.457	75.4	54.9	inactive
VASP	3	-0.284	72.5	59.6	inactive
VASP	4	0.0793	101	107	inactive
RAB29	1	-0.127	95.2	87.2	inactive
RAB29	2	-0.088	109	102	inactive
RAB29	3	-0.26	76.3	63.7	inactive
MBD2	1	0.0904	77.8	82.8	inactive
MBD2	2	-0.158	87.3	78.3	inactive
MBD2	3	-0.174	114	101	inactive
MBD2	4	0.311	42.6	52.8	inactive
RGPD5	1	-0.243	79.3	67	inactive
RGPD5	2	-0.495	7.7	5.47	inactive
RGPD5	3	-0.124	36	33	inactive
RGPD5	4	-0.619	99.3	64.7	inactive

Limited to “log2 vehicle/camptothecin viability”, for 11 of the entries above:
SLC38A2 #3 = 0.15
SLC38A2 #4 = -0.319
VASP #1 = 0.108
VASP #2 = -0.457
VASP #3 = -0.284
VASP #4 = 0.0793
RAB29 #1 = -0.127
RAB29 #2 = -0.088
RAB29 #3 = -0.26
MBD2 #1 = 0.0904
MBD2 #2 = -0.158

Next entries follow.
Target gene	siRNA no.	log2 vehicle/camptothecin viability	viability with camptothecin (% of control)	viability without drug (% of control)	call
CNR2	1	-0.326	80.4	64.1	inactive
CNR2	2	0.138	59.5	65.5	inactive
CNR2	3	-0.2	92.8	80.8	inactive
CNR2	4	-0.127	88.6	81.1	inactive
CACNA1H	1	0.215	2.98	3.46	inactive
CACNA1H	2	-0.0986	56.8	53.1	inactive
CACNA1H	3	0.0777	29.3	30.9	inactive
CACNA1H	4	0.271	56.5	68.2	inactive
TAAR6	1	-0.0941	52.9	49.6	inactive
TAAR6	2	-0.348	99	77.8	inactive
TAAR6	3	-0.131	71.7	65.4	inactive
TAAR6	4	0.0154	69.5	70.2	inactive
HTRA1	1	-0.501	130	92.1	inactive
HTRA1	2	-0.169	107	95	inactive
HTRA1	3	0.21	27.9	32.3	inactive
HTRA1	4	-0.134	57.8	52.6	inactive
USP50	1	-0.0111	90.6	89.9	inactive
USP50	2	-0.221	117	100	inactive
USP50	3	-0.0687	118	112	inactive
USP50	4	-0.0524	66.4	64	inactive
ACVR2B	1	-0.0436	66	64.1	inactive
ACVR2B	2	-0.0358	53.7	52.4	inactive
ACVR2B	3	0.467	48	66.4	inactive
ACVR2B	4	0.153	12.9	14.4	inactive
RGS19	1	-0.132	113	103	inactive
RGS19	2	-0.0963	114	107	inactive
RGS19	3	0.291	48.4	59.2	inactive
RGS19	4	0.305	69.7	86.1	inactive
MAP2K3	1	0.409	39.5	52.4	inactive
MAP2K3	2	-0.689	65.7	40.8	inactive
MAP2K3	3	-0.081	60.1	56.8	inactive
MAP2K3	4	-0.328	49.5	39.4	inactive
RASSF5	1	-0.183	87.5	77.1	inactive
RASSF5	2	0.0992	43.9	47.1	inactive
RASSF5	3	-0.0907	93.9	88.2	inactive
PCDH17	1	0.352	65.7	83.9	inactive
PCDH17	2	0.0262	96.2	98	inactive
PCDH17	3	0.049	51.9	53.7	inactive
PCDH17	4	-0.28	105	86.2	inactive
DDC	1	-0.241	68.7	58.1	inactive
DDC	2	0.0728	39.6	41.7	inactive
DDC	3	-0.149	47.3	42.6	inactive
DDC	4	-0.512	72.9	51.1	inactive
FMOD	1	-0.144	55.2	49.9	inactive
FMOD	2	-0.591	5.54	3.68	inactive
FMOD	3	-0.0503	80.3	77.5	inactive
CAMKK1	1	-0.0173	101	99.5	inactive
CAMKK1	2	-0.325	13.5	10.8	inactive
CAMKK1	3	-0.118	96.6	89	inactive
CAMKK1	4	-0.0931	103	96.2	inactive
MMP8	1	-0.127	57.2	52.4	inactive
MMP8	2	-0.135	73.3	66.8	inactive
MMP8	3	-0.735	125	75.4	inactive
MMP8	4	0.359	73.7	94.5	inactive
LMNA	1	-0.0586	48.9	46.9	inactive
LMNA	2	-0.116	70.4	64.9	inactive
LMNA	3	-0.133	47.1	43	inactive
LMNA	4	-0.0568	68.5	65.9	inactive
